Source: paper PMC10163288
The list shows a part of the results.

B1: il10ra_site1_sap_28_mot_HHH_b1_02665_000000293_0001_1_18_H_._HHH_b2_00739_0001_0000400033_0000001_0_0001_af2pred_0001 (protein)
chain: SSSSSEEEIEELLRELRELVEEGDLRRLLELIREVRKLAAELNDPEALEEVLELLRRALRSSSSS
B2: il10ra_site1_normal_mot_HHH_b2_00345_af2_000000013_0001_42_56_H_._HHH_b1_04343_0001_0000600027_0000002_0 (protein)
chain: SSSDEEVIEKASEVAQEAIRLAIRRNDEETFRELWRLFKEIIREGDPELLEELERLLEELRSSSS
B3: il10ra_site1_sap_24_mot_HHH_b2_05343_000000235_0001_19_35_H_._HHH_b1_08750_af2_0001_0000700009_0000001_0_0001 (protein)
chain: SSSSDVQREVYRLSRRIAELIRDGNPEEARRLLEELEELVEEFNNWNARFLLEVLRRALEQSSSS
B4: il10ra_site1_normal_mot_HHH_b2_00984_000000042_0001_1_20_H_._HHH_b1_04652_af2_0001_0000100001_0000002_0 (protein)
chain: SSSSDEEEVEERVEELLEEAKKIEDPEELARVLAEAVRLAFELGDAELLQEIWETIKELTSSSSS
B5: il10ra_site1_sap_20_mot_HHH_b2_05343_000000235_0001_19_35_H_._HHH_b1_07100_af2_0001_0000400018_0000001_0_0001 (protein)
chain: SSSDEEEVEELLIELAQLSARVSPEQQQLLQEALVRAHHLLHEGNPEEAREVLREVLEKVRSSSS
B6: il10ra_site1_normal_mot_HHH_b1_05697_000000276_0001_40_57_H_._HHH_b1_08314_af2_0001_0000100004_0000003_0 (protein)
chain: SSSSNNEEQHIRAILIFAKQTAEEGNPHAARFAVEYAYELAEELGNEELLKEAEELLKELSSSSS
B7: il10ra_site1_sap_4_mot_HHH_b1_07527_000000076_0001_1_15_H_._HHH_b2_00812_0001_0000200014_0000001_0_0001 (protein)
chain: SSSSDEEVLELLREAVRLLLRGNYEEAEKVLREAEQIARELNNERALRMVEDLLKIIESALSSSS
B8: il10ra_site1_sap_15_mot_HHH_b2_03062_af2_000000013_0001_23_38_H_._HHH_b1_01731_0001_0000300027_0000001_0_0001_af2pred_0001 (protein)
chain: SSSSNDRQRVYELLRKALELLRRGDPEEAREVLEEAKEIAEEANSLVFRWSLEFIEKEVNSSSSS
B9: il10ra_site1_normal_mot_HHH_b2_03438_af2_000000049_0001_18_34_H_._HHH_b1_02663_0001_0000500063_0000001_0 (protein)
chain: SSSSDEERRRAYELLRELAEVIHEGDEERAEELIEEIRELLEQVNDVLLLFQLKFLERALNSSSS
B10: il10ra_site1_normal_mot_HHH_b2_00984_000000042_0001_1_20_H_._HHH_b2_02580_af2_0001_0000200011_0000001_0 (protein)
chain: SSSSDEEEEEAEELLERLEELIKRGDREEALRLAQEALRVAFELSNPEILQRIWELIKELSSSSS
B11: il10ra_site1_normal_mot_8756ee2cf497b5429c717dfc0c0bcfd6_0001_000000186_0001_1_13_H_._HHH_b2_06757_af2_0001_0000200007_0000001_0 (protein)
chain: SSSSSSAEVSQELMELIREALKIEDKEEAEEVLREAEELAKENNNDVILAQLKYLLRQLSSSSSS
B12: il10ra_site1_sap_9_mot_HHH_b2_00943_af2_000000149_0001_1_17_H_._HHH_b1_04539_0001_0000200020_0000001_0_0001 (protein)
chain: SSSSSDQEEQHARAILYFAKLVDNPHARKLMLEVALRLARELGDEELEEEIEELLREINSSSSSS
B13: il10ra_site1_sap_16_mot_HHH_b2_01184_af2_000000191_0001_44_57_H_._HHH_b1_01019_0001_0000100001_0000001_0_0001_af2pred_0001 (protein)
chain: SSSSDEEEEELEELLRILRELGDRVAVLSVEYILEIYERTGDEKALKIAIEAAKRIIEELESSSS
B14: il10ra_site1_normal_mot_HHH_b1_05357_000000034_0001_23_39_H_._HHH_b2_02453_0001_0000100002_0000002_0 (protein)
chain: SSSSDVEEELEELLEEAKRIEDRARASHVLIRAYALAHHRNDPELEEFVREESLKIVEEGSSSSS
B15: il10ra_site1_normal_mot_HHH_b1_05098_000000185_0001_1_18_H_._HHH_b1_08425_0001_0000600040_0000001_0 (protein)
chain: SSSSDEEQEELLELSLEAFRLALRGNPEEAEEVVERARKLAEELNDERALRVIRALAEVLSSSSS
B16: il10ra_site1_sap_12_mot_HHH_b1_08281_000000266_0001_42_57_H_._HHH_b2_06600_af2_0002_0000100006_0000002_0_0001 (protein)
chain: SSSNRAAKWLAEQAAQAVELLLRQGDHERAEWAFENLERLLKQVGDPELKEILEEIEELLRSSSS
B17: il10ra_site1_normal_mot_HHH_b1_06914_000000280_0001_1_18_H_._HHH_b1_07761_0001_0000300040_0000001_0 (protein)
chain: SSSSSEEDEELYRLSRRAAELLARGNPEEAEELLEEAERLAERNNNRVLLFTIRFLLRQVTSSSS
B18: il10ra_site1_normal_mot_HHH_b1_02131_000000111_0001_1_18_H_._HHH_b1_04628_af2_0001_0000600030_0000001_0 (protein)
chain: SSSSSDEEELEELLEELEKLVKKNDVQRALEIAIHILRLAFRNSDEEVLQEAHELVLSLRSSSSS
B19: il10ra_site1_normal_mot_HHH_b1_04771_000000013_0001_40_56_H_._HHH_b1_06413_0001_0000200008_0000001_0 (protein)
chain: SSSSDLDERVSRLSQEVFRLALRGNPEEAEKVVEEAIELAEEANNERALRVLRDLEQVLESSSSS
B20: il10ra_site1_sap_17_mot_HHH_b2_00943_af2_000000149_0001_1_17_H_._HHH_b1_03323_0001_0000100004_0000001_0_0001_af2pred_0001 (protein)
chain: SSSSDEEVEREVEELLEEAKKVEDPEEVTYLLIRAFALATRNRDEELRELVEKVAQEVTESSSSS
B21: il10ra_site1_sap_24_mot_HHH_b2_04275_000000272_0001_20_36_H_._HHH_b1_07814_0001_0000100010_0000002_0_0001 (protein)
chain: SSSSSDEEVKEELEELFEEAEKTNDRELLAELAHLAIEYAFRNSDEEVLRLAWELIKRLSSSSSS
B22: il10ra_site1_normal_mot_HHH_b1_02997_000000220_0001_39_52_H_._HHH_b2_07840_0001_0000400035_0000001_0_af2pred_0001 (protein)
chain: SSSSSSDLKELIRELVEAVDEGDEEEAREIYEEAEELARERNDLIALLILEFALKDVESSSSSSS
B23: il10ra_site1_sap_27_mot_HHH_b2_08186_000000021_0001_43_56_H_._HHH_b2_00053_0001_0000300026_0000001_0_0001 (protein)
chain: SSSSSDQEEALELSQRAFHAALRGNPEEAEELLEKAHELAEELNDERLRRMIRDMQKAIKSSSSS
B24: il10ra_site1_sap_24_mot_HHH_b1_01939_000000180_0001_37_52_H_._HHH_b2_01511_0001_0000100011_0000001_0_0001 (protein)
chain: SSSSDEEEEELEELIRELEELLKRGDEEEVSRLAQRALRLAFQLSDPEALHRIWEILRKLSSSSS

target: il10ra, Q13651; assay: yeast display titration

| Binder | apparent Kd |
| --- | --- |
| B1 | inactive: no binding seen |
| B2 | inactive: no binding seen |
| B3 | inactive: no binding seen |
| B4 | inactive: no binding seen |
| B5 | inactive: no binding seen |
| B6 | inactive: no binding seen |
| B7 | inactive: no binding seen |
| B8 | inactive: no binding seen |
| B9 | inactive: no binding seen |
| B10 | inactive: no binding seen |
| B11 | inactive: no binding seen |
| B12 | inactive: no binding seen |
| B13 | inactive: no binding seen |
| B14 | inactive: no binding seen |
| B15 | inactive: no binding seen |
| B16 | inactive: no binding seen |
| B17 | inactive: no binding seen |
| B18 | inactive: no binding seen |
| B19 | inactive: no binding seen |
| B20 | inactive: no binding seen |
| B21 | inactive: no binding seen |
| B22 | inactive: no binding seen |
| B23 | inactive: no binding seen |
| B24 | inactive: no binding seen |

Two entries picked at random from the list so far, as already listed:

| Binder | apparent Kd |
| --- | --- |
| B6 | inactive: no binding seen |
| B24 | inactive: no binding seen |
